# Measured values as given in the supplement of paper PMC8728848.
# Some of the results follow.
# B1: NK2 (Sus scrofa) (peptide)
# chain: KILRGVCKKIMRTFLRRISKDILTGKK
# How the values were obtained:
# Test in all cases: glycan array binding signal (z-score within array); higher = stronger binding
# Conditions in all cases: glycan notation: IUPAC condensed, linker removed
# [1] = molecular target: Fuc(a1-2)Gal(b1-4)GlcNAc(b1-2)[Fuc(a1-2)Gal(b1-4)GlcNAc(b1-4)]Man(a1-3)[Fuc(a1-2)Gal(b1-4)GlcNAc(b1-2)Man(a1-6)]Man(b1-4)GlcNAc(b1-4)GlcNAc
# Outline: (§1)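 From the Consortium for Functional Glycomics database, 3228 arrays were curated, keeping only those whose protein sequence was available. Binding is given as a within-array Z-score averaged across arrays sharing a protein sequence and across linkers. Negative Z-scores can be read as non-binding.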
# [2] = molecular target: Fuc(a1-2)Gal(b1-4)GlcNAc(b1-3)Gal(b1-4)GlcNAc
# Outline: as §1
# [3] = molecular target: Fuc(a1-2)Gal(b1-4)GlcNAc(b1-3)Gal(b1-4)GlcNAc(b1-2)Man(a1-3)[Fuc(a1-2)Gal(b1-4)GlcNAc(b1-3)Gal(b1-4)GlcNAc(b1-2)Man(a1-6)]Man(b1-4)GlcNAc(b1-4)GlcNAc
# Outline: as §1
# [4] = molecular target: Fuc(a1-2)Gal(b1-4)GlcNAc(b1-3)Gal(b1-4)GlcNAc(b1-3)Gal(b1-4)GlcNAc
# Outline: as §1
# [5] = molecular target: Fuc(a1-2)Gal(b1-4)GlcNAc(b1-3)GalNAc
# Outline: as §1
# [6] = molecular target: Fuc(a1-2)Gal(b1-4)GlcNAc(b1-3)[Fuc(a1-2)Gal(b1-4)GlcNAc(b1-6)]GalNAc
# Outline: as §1
# [7] = molecular target: Fuc(a1-2)Gal(b1-4)GlcNAc(b1-3)[Fuc(a1-3)[Gal(b1-4)]GlcNAc(b1-6)]Gal(b1-4)Glc
# Outline: as §1
# [8] = molecular target: Fuc(a1-2)Gal(b1-4)GlcNAc(b1-6)GalNAc
# Outline: as §1
# [9] = molecular target: Fuc(a1-2)Gal(b1-4)GlcNAc6S
# Outline: as §1
# [10] = molecular target: Fuc(a1-2)Gal(b1-4)[Fuc(a1-3)]GlcNAc
# Outline: as §1
# [11] = molecular target: Fuc(a1-2)Gal(b1-4)[Fuc(a1-3)]GlcNAc(b1-2)Man(a1-3)[Fuc(a1-2)Gal(b1-4)[Fuc(a1-3)]GlcNAc(b1-2)Man(a1-6)]Man(b1-4)GlcNAc(b1-4)GlcNAc
# Outline: as §1
# [12] = molecular target: Fuc(a1-2)Gal(b1-4)[Fuc(a1-3)]GlcNAc(b1-2)Man(a1-3)[Fuc(a1-2)Gal(b1-4)[Fuc(a1-3)]GlcNAc(b1-2)Man(a1-6)]Man(b1-4)GlcNAc(b1-4)[Fuc(a1-6)]GlcNAc
# Outline: as §1
# [13] = molecular target: Fuc(a1-2)Gal(b1-4)[Fuc(a1-3)]GlcNAc(b1-2)[Fuc(a1-2)Gal(b1-4)[Fuc(a1-3)]GlcNAc(b1-4)]Man(a1-3)[Fuc(a1-2)Gal(b1-4)[Fuc(a1-3)]GlcNAc(b1-2)Man(a1-6)]Man(b1-4)GlcNAc(b1-4)GlcNAc
# Outline: as §1
# [14] = molecular target: Fuc(a1-2)Gal(b1-4)[Fuc(a1-3)]GlcNAc(b1-3)Gal(b1-4)[Fuc(a1-3)]GlcNAc
# Outline: as §1
# [15] = molecular target: Fuc(a1-2)Gal(b1-4)[Fuc(a1-3)]GlcNAc(b1-3)Gal(b1-4)[Fuc(a1-3)]GlcNAc(b1-3)Gal(b1-4)[Fuc(a1-3)]GlcNAc
# Outline: as §1
# [16] = molecular target: Fuc(a1-2)Gal(b1-4)[Fuc(a1-3)]GlcNAc(b1-3)GalNAc
# Outline: as §1
# [17] = molecular target: Fuc(a1-2)Gal(b1-4)[Fuc(a1-3)]GlcNAc(b1-3)[Neu5Ac(a2-6)Gal(b1-4)GlcNAc(b1-6)]Gal(b1-4)Glc
# Outline: as §1
# [18] = molecular target: Fuc(a1-2)Gal3S(b1-4)GlcNAc
# Outline: as §1
# [19] = molecular target: Fuc(a1-2)Gal6S(b1-3)GlcNAc
# Outline: as §1
# [20] = molecular target: Fuc(a1-2)Gal6S(b1-3)GlcNAc6S
# Outline: as §1
# Fuc(a1-2)Gal6S(b1-4)Glc = molecular target: Fuc(a1-2)Gal6S(b1-4)Glc
# Outline: as §1
# [21] = molecular target: Fuc(a1-2)Gal6S(b1-4)Glc6S
# Outline: as §1
# [22] = molecular target: Fuc(a1-2)Gal6S(b1-4)GlcNAc
# Outline: as §1
# Fuc(a1-2)[Gal(a1-3)]Gal = molecular target: Fuc(a1-2)[Gal(a1-3)]Gal
# Outline: as §1
# [23] = molecular target: Fuc(a1-2)[Gal(a1-3)]Gal(b1-3)GalNAc
# Outline: as §1
# [24] = molecular target: Fuc(a1-2)[Gal(a1-3)]Gal(b1-3)GalNAc(b1-3)Gal(a1-4)Gal(b1-4)Glc
# Outline: as §1
# [25] = molecular target: Fuc(a1-2)[Gal(a1-3)]Gal(b1-3)GlcNAc
# Outline: as §1
# [26] = molecular target: Fuc(a1-2)[Gal(a1-3)]Gal(b1-3)GlcNAc(b1-2)Man(a1-3)[Fuc(a1-2)[Gal(a1-3)]Gal(b1-3)GlcNAc(b1-2)Man(a1-6)]Man(b1-4)GlcNAc(b1-4)GlcNAc
# Outline: as §1
# [27] = molecular target: Fuc(a1-2)[Gal(a1-3)]Gal(b1-3)GlcNAc(b1-2)Man(a1-3)[Fuc(a1-2)[Gal(a1-3)]Gal(b1-3)GlcNAc(b1-2)Man(a1-6)]Man(b1-4)GlcNAc(b1-4)[Fuc(a1-6)]GlcNAc
# Outline: as §1
# [28] = molecular target: Fuc(a1-2)[Gal(a1-3)]Gal(b1-3)GlcNAc(b1-3)GalNAc
# Outline: as §1
binder,measurement,setting,value
B1,glycan array binding signal (z-score),[1],0.417
same,glycan array binding signal (z-score),[2],-0.437
same,glycan array binding signal (z-score),[3],-0.279
same,glycan array binding signal (z-score),[4],0.328
same,glycan array binding signal (z-score),[5],0.329
same,glycan array binding signal (z-score),[6],0.298
same,glycan array binding signal (z-score),[7],-0.934
same,glycan array binding signal (z-score),[8],-0.368
same,glycan array binding signal (z-score),[9],1.15
same,glycan array binding signal (z-score),[10],-0.856
same,glycan array binding signal (z-score),[11],0.271
same,glycan array binding signal (z-score),[12],-0.551
same,glycan array binding signal (z-score),[13],0.322
same,glycan array binding signal (z-score),[14],-1.24
same,glycan array binding signal (z-score),[15],0.193
same,glycan array binding signal (z-score),[16],0.765
same,glycan array binding signal (z-score),[17],0.725
same,glycan array binding signal (z-score),[18],-1.68
same,glycan array binding signal (z-score),[19],1.09
same,glycan array binding signal (z-score),[20],2.03
same,glycan array binding signal (z-score),Fuc(a1-2)Gal6S(b1-4)Glc,0.092
same,glycan array binding signal (z-score),[21],2.24
same,glycan array binding signal (z-score),[22],1.7
same,glycan array binding signal (z-score),Fuc(a1-2)[Gal(a1-3)]Gal,-0.111
same,glycan array binding signal (z-score),[23],-0.349
same,glycan array binding signal (z-score),[24],1.23
same,glycan array binding signal (z-score),[25],-0.528
same,glycan array binding signal (z-score),[26],-1.04
same,glycan array binding signal (z-score),[27],0.527
same,glycan array binding signal (z-score),[28],0.068

# Shown tab-delimited: part of the list above.
binder	measurement	setting	value
B1	glycan array binding signal (z-score)	[17]	0.725
same	glycan array binding signal (z-score)	[18]	-1.68
